Measured values reported in PMC9370035, “Identification of 3-Oxindole Derivatives as Small Molecule HIV-1 Inhibitors Targeting Tat-Mediated Viral Transcription” (Molecules, 2022).

Test system: Tat-mediated HIV-1 transcription
Experiment: microbe, parasite or virus in culture
Assay type: cell-based
Settings: Human immunodeficiency virus 1, 24 h, read-out: IC50 (inhibition of Tat-mediated HIV-1 transcription)
Procedure: bl-DTR (TZM-bl-derived dual Tat reporter) cells derived from TZM-bl cells by insertion of two doxycycline-inducible lentiviral vector-expressing flag-tagged tat and Renilla-luciferase (R-Luc) genes were used to determine simultaneously both activities of Tat-mediated HIV-1 transcription and general cellular transcription, as described previously. Determination of the inhibitory effect of the compounds on Tat-mediated transcription was performed as described previously. In brief, 1 × 10^4 of bl-DTR cells cultured in 96-well plates were treated with compounds at a final concentration of 3 μM (Figure 3C) or with 1:2 serially diluted compounds at concentrations ranging from 0 to 25 μM (Figure 4 and Table 3). Subsequently, doxycycline was treated at a final concentration of 50 ng/mL to induce Tat-mediated F-Luc and R-Luc. At 24 h after treatment, the activities of F-Luc and R-Luc were determined by using a Dual-Glo™ luciferase assay system (Promega, Madison, WI, USA) according to the manufacturer’s protocols. The data are presented as a percentage relative to the DMSO control (vehicle) in the presence of doxycycline, and the experiment was performed in triplicate.

Q: How did the IC50 turn out when CC[C@H](CO)Nc1nc(NCc2ccccc2)c2ncn(C(C)C)c2n1 [seliciclib, Seliciclib, reference compound] was run?
A: 2410 ± 70 nM
